Drawing on publication PMC4974481, this text covers binding for one substance.

By UniProt entry, the sequences of proteins in these tests, tags left out.
UniProt P14859: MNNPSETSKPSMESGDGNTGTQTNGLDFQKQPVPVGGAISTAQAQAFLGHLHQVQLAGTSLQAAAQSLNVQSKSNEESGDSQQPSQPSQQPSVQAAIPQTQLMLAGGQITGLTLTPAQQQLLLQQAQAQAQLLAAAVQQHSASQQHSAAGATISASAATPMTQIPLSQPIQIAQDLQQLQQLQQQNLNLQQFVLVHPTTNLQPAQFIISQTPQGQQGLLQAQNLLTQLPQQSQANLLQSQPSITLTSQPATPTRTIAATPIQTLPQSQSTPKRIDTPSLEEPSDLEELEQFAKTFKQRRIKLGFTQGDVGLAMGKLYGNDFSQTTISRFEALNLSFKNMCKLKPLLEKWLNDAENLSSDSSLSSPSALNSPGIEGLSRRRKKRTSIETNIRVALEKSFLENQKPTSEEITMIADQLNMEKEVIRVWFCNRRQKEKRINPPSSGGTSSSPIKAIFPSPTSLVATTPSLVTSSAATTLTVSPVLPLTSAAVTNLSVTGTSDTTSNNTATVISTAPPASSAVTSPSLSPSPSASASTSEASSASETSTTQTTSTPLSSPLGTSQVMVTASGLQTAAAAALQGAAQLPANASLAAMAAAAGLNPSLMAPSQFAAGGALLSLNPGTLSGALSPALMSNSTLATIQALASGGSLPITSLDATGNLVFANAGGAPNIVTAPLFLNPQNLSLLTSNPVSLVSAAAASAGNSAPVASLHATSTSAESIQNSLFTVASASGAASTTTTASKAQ
UniProt P19474: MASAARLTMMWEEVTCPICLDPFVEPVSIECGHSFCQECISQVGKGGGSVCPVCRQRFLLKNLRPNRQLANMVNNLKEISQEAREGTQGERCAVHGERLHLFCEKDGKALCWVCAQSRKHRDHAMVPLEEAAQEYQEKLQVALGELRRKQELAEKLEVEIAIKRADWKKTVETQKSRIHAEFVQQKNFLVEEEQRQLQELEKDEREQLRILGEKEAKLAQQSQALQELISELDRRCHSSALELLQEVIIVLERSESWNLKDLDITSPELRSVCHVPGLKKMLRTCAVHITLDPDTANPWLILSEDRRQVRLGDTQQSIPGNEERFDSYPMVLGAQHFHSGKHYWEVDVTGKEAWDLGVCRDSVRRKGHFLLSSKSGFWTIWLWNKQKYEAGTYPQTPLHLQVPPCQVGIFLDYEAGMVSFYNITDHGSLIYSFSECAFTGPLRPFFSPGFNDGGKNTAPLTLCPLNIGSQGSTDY

This experiment deals with endogenous Oct-1 (octamer-binding transcription factor 1, encoded by POU2F1) (human (endogenous in HT29)) (UniProt P14859). Kind of experiment: co-IP; HT29 lysate in RIPA buffer; 1 μg anti-Oct-1 antibody and Protein G dynabeads with 500 μg extracted protein, overnight at 4 °C, three washes; western blot with Clean-Blot IP detection kit. A general note: A western blot detects proteins with antibodies after separation by electrophoresis.

No constants are given. Whether binding was seen depends on the method and setting. In cells and extracts the contact can be indirect. Some binding calls cover weakened binding; strength is not graded here.

Turning to “tripartite motif-containing protein 21 (TRIM21) (from UniProt P19474 1-475)”, the binding entry is recorded as “binds”.
